Data: publication PMC7590512, “Lysosomal cathepsin creates chimeric epitopes for diabetogenic CD4 T cells via transpeptidation” (The Journal of Experimental Medicine, 2020)

System: BDC-2.5 TCR
Settings: p1-4 fused to WSRMDQ; baculovirus DNA from enriched virus of Fig. 1 C, panel 3

Substance	freq (occurrence in sequencing data of BDC-2.5-enriched library)
LTSL	13607
QRCI	2606
NVPV	5616
LLGS	5120
SVGV	2872
